Experimental data reported in patent US9616129B2, “Compositions and methods for potentiating immune response, enhancing immunotherapy, and increasing vaccine potency” (Nitor Therapeutics, priority 2013, dated 2017).
Some results were stated once for a whole list of compounds, not compound by compound.

Test system: L. monocytogenes (ATCC Strain35152, hemolytic substrain)
Test: Mouse model of L. monocytogenes infection
Type: in vivo
Details: Balb/c mice infected i.v. with 1×10^6 CFU; treatments per Table 3; FIGS. 8 and 10

Q: For `O=c1[nH]cnc2c([C@@H]3N[C@H](CO)[C@@H](O)[C@H]3O)c[nH]c12` [NTR001, 7-[(2S,3S,4R,5R)-3,4-dihydroxy-5-(hydroxymethyl)-2-pyrrolidinyl]-1,5-dihydro-4H-pyrrolo[3,2-d]pyrimidin-4-one], which “protection of animals (survival)” value is on record?
A: 10-20%
